Experimental data taken from paper PMC4153465.
Results are given in words; binding and its absence hold for the method and conditions named.

By UniProt entry, the sequences of proteins in these tests, tags left out.
UniProt Q8K1B8: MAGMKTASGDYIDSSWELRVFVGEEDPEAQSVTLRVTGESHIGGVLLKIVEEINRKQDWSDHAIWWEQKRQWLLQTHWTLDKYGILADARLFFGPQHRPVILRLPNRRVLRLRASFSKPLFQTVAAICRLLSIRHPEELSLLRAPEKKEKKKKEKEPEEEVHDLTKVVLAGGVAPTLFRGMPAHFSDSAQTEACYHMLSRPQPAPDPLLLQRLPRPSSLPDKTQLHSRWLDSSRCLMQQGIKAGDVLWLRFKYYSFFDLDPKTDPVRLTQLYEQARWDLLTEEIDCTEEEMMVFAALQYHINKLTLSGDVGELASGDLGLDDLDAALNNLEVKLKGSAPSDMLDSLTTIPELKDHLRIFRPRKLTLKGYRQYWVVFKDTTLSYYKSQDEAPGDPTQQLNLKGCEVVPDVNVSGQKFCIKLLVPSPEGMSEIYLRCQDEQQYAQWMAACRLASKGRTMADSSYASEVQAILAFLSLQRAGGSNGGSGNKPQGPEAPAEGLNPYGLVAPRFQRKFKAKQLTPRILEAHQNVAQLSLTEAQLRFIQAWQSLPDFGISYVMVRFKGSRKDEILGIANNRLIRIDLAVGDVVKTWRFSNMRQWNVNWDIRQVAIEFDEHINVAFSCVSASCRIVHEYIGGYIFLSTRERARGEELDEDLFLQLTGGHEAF

Target: recombinant murine kindlin-3 (mouse) (UniProt Q8K1B8)
Test: SEC; Superdex S200 (16/60), Tris-HCl pH 7.5, 150 mM NaCl, 1 mM DTT, 20 °C; size judged from the elution volume; both purified

binding: no binding
Substance: recombinant murine kindlin-3 (from UniProt Q8K1B8 1-665)
